PubChem BioAssay AID1671195 | Yale University, 2021

Aim: 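Regulators of LDL receptor activity judged by labelled LDL uptake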 (primary screen)
System: human Huh7 hepatoma cells
Knock-down reagent: siRNA pool against human genes, 18 nM
Timing: about 2 to 2.5 days of knockdown, then 8 h LDL uptake
Conditions: DiI-labelled LDL at 30 µg/ml for 8 h, in lipoprotein-deficient serum medium
Measurement: 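Per-cell DiI-LDL intensity by automated imaging; well means scaled to the plate median and given as a robust z-score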
Reading the numbers: robust z-score: higher = more LDL uptake after knockdown
Call rule: 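Active when two or more replicates show a robust z-score above 2 or below -2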
In all, the deposit lists about 22,000 reagents; shown is an unselected part. Over the whole deposit, about 1,510 (6.9%) got an active call. 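Active includes knockdowns raising or lowering LDL uptake; positive z-scores mean more uptake, negative mean less.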 Reagent sequences are not shown.

gene knocked down	robust z-score, replicate 1	robust z-score, replicate 2	robust z-score, replicate 3	Call
PER3 (GeneID 8863)	-1.32	-0.497	-1.19	inactive
GTF2A1 (GeneID 2957)	0.513	0.792	0.484	inactive
SOFU1 (GeneID 135927)	0.0215	-0.338	0.0195	inactive
PDS5B (GeneID 23047)	0.185	1.82	0.433	inactive
PRSS55 (GeneID 203074)	-1.72	-1.5	-1.21	inactive
FLJ44955 (retired record) (GeneID 401278)	0.362	-0.0194	-0.209	inactive
KCND1 (GeneID 3750)	-1.88	-1.76	-1.95	inactive
NOTCH3 (GeneID 4854)	-0.397	-0.183	-0.717	inactive
BMPER (GeneID 168667)	0.261	0.414	-0.159	inactive
MOG (GeneID 4340)	-1.09	-0.576	-0.637	inactive
ZBP1 (GeneID 81030)	-1.87	-1.62	-1.48	inactive
IGFL1 (GeneID 374918)	0.443	0.732	0.225	inactive
LOC441546 (retired record) (GeneID 441546)	-1.72	-1.86	-1.63	inactive
FAM216B (GeneID 144809)	0.192	0.775	0.61	inactive
STARD3NL (GeneID 83930)	-1.62	-0.759	-1.6	inactive
LINC01085 (GeneID 152742)	0.194	0.317	0.0316	inactive
ZNF385A (GeneID 25946)	0.57	0.0557	0.42	inactive
ACBD6 (GeneID 84320)	0.323	-0.486	-0.0821	inactive
PDE6G (GeneID 5148)	-1.98	-1.1	-1.36	inactive
TGIF1 (GeneID 7050)	0.978	1.53	1.36	inactive
GLUL (GeneID 2752)	2.35	2.45	1.94	active
LILRA3 (GeneID 11026)	-0.445	-1.6	-0.908	inactive
CWC15 (GeneID 51503)	-0.894	-0.881	-3	inactive
C22orf46P (GeneID 79640)	0.777	1.12	1	inactive
RORC (GeneID 6097)	1.71	0.869	1.28	inactive
TRIM10 (GeneID 10107)	-0.722	-0.514	-0.173	inactive
LOC441826 (retired record) (GeneID 441826)	5.79	3.16	3.79	active
STX5 (GeneID 6811)	0.542	0.0116	0.139	inactive
LOC391555 (retired record) (GeneID 391555)	0.469	0.456	0.0369	inactive
NPAS4 (GeneID 266743)	3.55	3.59	3.3	active
CXCL8 (GeneID 3576)	1.46	2.01	1.69	inactive
PCYT1A (GeneID 5130)	1.7	0.962	2.25	inactive
LOC388193 (retired record) (GeneID 388193)	0.645	0.523	0.475	inactive
SERPINA13P (GeneID 388007)	-1.38	-2.24	-1.22	inactive
MIR137HG (GeneID 400765)	0.475	0.417	0.479	inactive
SPAAR (GeneID 158376)	2.52	0.85	1.93	active
LOC440734 (retired record) (GeneID 440734)	-0.371	0.0909	-0.702	inactive
SERPINF1 (GeneID 5176)	1.82	1.92	2.55	active
NANOS1 (GeneID 340719)	0.00685	0.142	0.2	inactive
SCRN1 (GeneID 9805)	1.26	0.0761	-0.474	inactive
ATXN1 (GeneID 6310)	-0.201	-0.362	-0.483	inactive
TACR2 (GeneID 6865)	-0.819	-1.59	-1.49	inactive

Part of the list above, reformatted.
gene knocked down,"robust z-score, replicate 1","robust z-score, replicate 2","robust z-score, replicate 3",Call
TGIF1 (GeneID 7050),0.978,1.53,1.36,inactive
GLUL (GeneID 2752),2.35,2.45,1.94,active
LILRA3 (GeneID 11026),-0.445,-1.6,-0.908,inactive
CWC15 (GeneID 51503),-0.894,-0.881,-3,inactive
C22orf46P (GeneID 79640),0.777,1.12,1,inactive
RORC (GeneID 6097),1.71,0.869,1.28,inactive
TRIM10 (GeneID 10107),-0.722,-0.514,-0.173,inactive
LOC441826 (retired record) (GeneID 441826),5.79,3.16,3.79,active
STX5 (GeneID 6811),0.542,0.0116,0.139,inactive
LOC391555 (retired record) (GeneID 391555),0.469,0.456,0.0369,inactive
NPAS4 (GeneID 266743),3.55,3.59,3.3,active
CXCL8 (GeneID 3576),1.46,2.01,1.69,inactive

Additional entries:
gene knocked down	robust z-score, replicate 1	robust z-score, replicate 2	robust z-score, replicate 3	Call
ID4 (GeneID 3400)	1.29	1.13	0.76	inactive
SLC26A9 (GeneID 115019)	-0.726	-0.758	-0.994	inactive
LYPD6 (GeneID 130574)	-0.582	-0.851	-0.417	inactive
ZNF345 (GeneID 25850)	-0.479	-0.644	-0.895	inactive
TRIM42 (GeneID 287015)	0.675	-0.298	0.135	inactive
LOC390896 (retired record) (GeneID 390896)	-0.816	-0.739	0.138	inactive
C1orf54 (GeneID 79630)	-1.92	-1.03	-1.17	inactive
KRT10-AS1 (GeneID 147184)	-1.31	-0.982	-1.25	inactive
DEPDC7 (GeneID 91614)	1.18	0.996	0.424	inactive
CNR2 (GeneID 1269)	-0.895	-0.61	-0.295	inactive
DDR2 (GeneID 4921)	-0.531	0.911	0.474	inactive
LOC402336 (retired record) (GeneID 402336)	0.975	-1.65	0.424	inactive
JADE1 (GeneID 79960)	-0.0577	1.57	0.792	inactive
RIMKLB (GeneID 57494)	0.000946	0.95	0.302	inactive
RUVBL1 (GeneID 8607)	0.689	0.99	-0.0369	inactive
MKNK1 (GeneID 8569)	0.0602	-0.331	-0.834	inactive
LRRC18 (GeneID 474354)	-1.63	-1.48	-1.28	inactive
RPL39 (GeneID 6170)	-0.201	0.143	0.268	inactive
OR5M9 (GeneID 390162)	0.0562	0.502	1.2	inactive
LINC00473 (GeneID 90632)	-0.621	-0.578	-0.883	inactive
LOC440972 (retired record) (GeneID 440972)	-1.06	-1.33	-1.34	inactive
GATB (GeneID 5188)	0.431	-0.0532	0.278	inactive
CCNB1IP1 (GeneID 57820)	0.927	1.23	1.42	inactive
EIF2B4 (GeneID 8890)	-0.264	0.179	0.341	inactive
IL21 (GeneID 59067)	-0.598	-0.171	-0.102	inactive
ALDH3B1 (GeneID 221)	-0.517	-0.758	-0.416	inactive
LRRC75A (GeneID 388341)	1.08	0.931	1.07	inactive
NXPE2 (GeneID 120406)	-0.324	-0.23	-1.06	inactive
OGA (GeneID 10724)	-0.579	0.522	-1.05	inactive
GRXCR1 (GeneID 389207)	1.32	1.24	1.01	inactive
OR51F2 (GeneID 119694)	-0.464	-0.748	-0.791	inactive
SCN1B (GeneID 6324)	0.545	0.726	0.646	inactive
SPATA13 (GeneID 221178)	0.61	0.311	0.409	inactive
AGPAT4 (GeneID 56895)	-2.62	-1.69	-1.77	inactive
HSF4 (GeneID 3299)	-0.957	-0.643	-0.747	inactive
TUBE1 (GeneID 51175)	0.3	0.863	0.837	inactive
UBE2N (GeneID 7334)	1.14	1.1	-0.278	inactive
LINC01624 (GeneID 401289)	-2.7	-3.15	-3.24	active
VWDE (GeneID 221806)	0.52	0.71	0.457	inactive
NKAIN2 (GeneID 154215)	-1.28	-0.987	-1.36	inactive
COBL (GeneID 23242)	0.885	0.252	1.76	inactive
LRRC37BP1 (GeneID 147172)	-1.55	-1.33	-1.3	inactive
C2CD3 (GeneID 26005)	-0.81	-0.352	0.231	inactive
CPXCR1 (GeneID 53336)	0.222	-0.763	0.81	inactive
GMPR (GeneID 2766)	-0.603	0.926	0.0108	inactive
